{"source": "patent US20150376581", "target": "EGFR (epidermal growth factor receptor) on A431 cells (UniProt P00533)", "assay": "flow cytometry", "settings": "2'-OMe at all nucleotides; 50 nM RNA, transcription buffer, 25 C 30 min; washes DPBS + 5 mM MgCl2; no-aptamer control; protein on the cell surface; protein details: A431 cells (ATCC)", "note": "The exact form of at least one protein or probe is not confirmed. At least one result comes from cells or an extract, where the contact may be indirect."}
{"sequence": "GGCGCUCCGACCUUAGUCUCUGUGCCGCUAUAAUGCACGGAUUUAAUCGCCGUAGAAAAGCAUGUCAAAGCCGGAACCGUGUAGCACAGCAGA", "values": [{"measurement": "binding result", "value": "binds"}]}
